These are yes or no findings as the source states them, for the method shown. For part of these data: In cells and extracts the contact can be indirect. Some binding calls cover weakened binding; strength is not graded here.
Experiments:
[1] = target: Syndecan-3, endogenous in differentiated SH-SY5Y cells (human (endogenous in SH-SY5Y)) (UniProt O75056); test: co-IP; differentiated WT SH-SY5Y cells incubated with 500 nM FITC-ApoE for 18 h at 37 °C, lysed in Pierce IP lysis buffer; precipitated with human SDC3 antibody and Protein A/G magnetic beads; FITC-ApoE seen on SDS-PAGE by fluorescence imaging; only the binder purified
[2] = target: T1, Syndecan-4, full length, stable transfectant in K562 cells (UniProt P31431); test: flow cytometry on cells; WT K562 cells and SDC1-4 transfectants (standardised for HS expression) incubated with 500 nM FITC-ApoE for 3 h at 37 °C in DMEM/F12 with 10% FCS; overall cellular fluorescence (not quenched with trypan blue) compared with WT K562 cells; only the binder purified
T1 sequence: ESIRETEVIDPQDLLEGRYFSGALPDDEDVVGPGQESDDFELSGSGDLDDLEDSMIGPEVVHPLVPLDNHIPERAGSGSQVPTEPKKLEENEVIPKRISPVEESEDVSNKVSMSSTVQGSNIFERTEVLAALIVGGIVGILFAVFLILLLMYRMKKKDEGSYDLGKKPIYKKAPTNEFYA

The chains behind the UniProt entries cited, without tags or fusion partners. Where a name states a change or a piece, a line headed by the entry shows the natural chain unless it says otherwise. A line that says so, or that is headed by a name, gives the form on record, which may keep a tag or linker. Residues count along the entry.
UniProt O75056: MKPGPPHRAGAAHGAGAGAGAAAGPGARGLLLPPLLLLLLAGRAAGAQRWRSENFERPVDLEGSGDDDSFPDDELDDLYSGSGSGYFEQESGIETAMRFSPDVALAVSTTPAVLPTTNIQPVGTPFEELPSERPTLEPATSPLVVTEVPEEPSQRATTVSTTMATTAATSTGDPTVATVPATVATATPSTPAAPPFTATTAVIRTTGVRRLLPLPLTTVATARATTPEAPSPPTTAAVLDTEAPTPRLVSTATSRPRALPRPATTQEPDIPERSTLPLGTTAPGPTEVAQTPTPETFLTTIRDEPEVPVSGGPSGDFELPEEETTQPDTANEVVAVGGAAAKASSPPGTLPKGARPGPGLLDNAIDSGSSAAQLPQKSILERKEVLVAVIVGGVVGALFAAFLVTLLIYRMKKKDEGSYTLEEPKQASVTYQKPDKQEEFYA
UniProt P34741, residues 19-201: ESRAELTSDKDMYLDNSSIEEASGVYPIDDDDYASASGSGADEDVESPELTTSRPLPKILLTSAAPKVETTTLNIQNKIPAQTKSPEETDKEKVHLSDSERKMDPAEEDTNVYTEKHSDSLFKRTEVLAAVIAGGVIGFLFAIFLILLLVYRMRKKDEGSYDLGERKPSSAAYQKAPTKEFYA
FITC-labeled apolipoprotein E3 (P02649, residues 19-317): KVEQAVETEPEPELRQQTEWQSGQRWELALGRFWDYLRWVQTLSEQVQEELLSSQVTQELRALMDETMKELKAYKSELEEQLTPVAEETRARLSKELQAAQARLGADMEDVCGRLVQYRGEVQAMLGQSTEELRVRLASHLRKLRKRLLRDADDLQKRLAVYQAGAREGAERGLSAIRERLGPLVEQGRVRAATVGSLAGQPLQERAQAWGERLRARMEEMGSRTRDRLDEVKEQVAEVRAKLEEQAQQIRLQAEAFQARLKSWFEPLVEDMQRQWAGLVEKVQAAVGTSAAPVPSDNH
FITC-labeled apolipoprotein E2 (P02649, form named): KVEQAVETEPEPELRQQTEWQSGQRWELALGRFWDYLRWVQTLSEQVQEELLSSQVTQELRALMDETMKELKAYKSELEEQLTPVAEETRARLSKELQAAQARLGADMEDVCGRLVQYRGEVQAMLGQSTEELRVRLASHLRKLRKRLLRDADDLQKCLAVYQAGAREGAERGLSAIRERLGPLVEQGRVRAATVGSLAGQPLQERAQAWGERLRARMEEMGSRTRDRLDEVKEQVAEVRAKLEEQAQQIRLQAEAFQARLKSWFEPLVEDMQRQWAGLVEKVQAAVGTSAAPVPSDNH
FITC-labeled apolipoprotein E4 (P02649, form named): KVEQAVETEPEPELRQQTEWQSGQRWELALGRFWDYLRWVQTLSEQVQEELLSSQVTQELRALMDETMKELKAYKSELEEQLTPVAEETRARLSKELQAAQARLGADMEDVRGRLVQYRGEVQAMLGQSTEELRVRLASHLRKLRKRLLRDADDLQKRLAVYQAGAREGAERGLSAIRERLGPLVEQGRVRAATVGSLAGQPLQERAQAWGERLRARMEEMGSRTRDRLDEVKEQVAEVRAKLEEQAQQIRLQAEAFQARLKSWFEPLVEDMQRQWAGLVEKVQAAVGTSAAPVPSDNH

[3] = target: T2, Syndecan-1, full length, stable transfectant in K562 cells (UniProt P18827); test: as above
T2 sequence: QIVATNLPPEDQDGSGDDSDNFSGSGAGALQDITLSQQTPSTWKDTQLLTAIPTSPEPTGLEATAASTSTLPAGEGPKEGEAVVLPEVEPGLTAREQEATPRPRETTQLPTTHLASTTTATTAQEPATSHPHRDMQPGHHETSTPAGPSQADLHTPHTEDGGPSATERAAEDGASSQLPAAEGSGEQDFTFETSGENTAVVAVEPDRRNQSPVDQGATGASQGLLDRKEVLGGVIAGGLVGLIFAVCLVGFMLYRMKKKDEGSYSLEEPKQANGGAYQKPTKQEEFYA

[4] = target: Syndecan-3, full length, stable transfectant in K562 cells (UniProt O75056); test: as above
[5] = target: Syndecan-2, full length, stable transfectant in K562 cells (UniProt P34741); test: as above
[6] = target: Syndecan-3, full length, stable transfectant in K562 cells (UniProt O75056); test: co-IP; SDC3 transfectants in K562 incubated with 500 nM FITC-ApoE for 18 h at 37 °C, lysed in Pierce IP lysis buffer; precipitated with human SDC3 antibody and Protein A/G magnetic beads; FITC-ApoE seen on SDS-PAGE by fluorescence imaging; only the binder purified

Measured: binding

FITC-labeled apolipoprotein E2 (from UniProt P02649 19-317)
binds: all assays above

FITC-labeled apolipoprotein E3 (from UniProt P02649 19-317)
binds: all assays above

FITC-labeled apolipoprotein E4 (from UniProt P02649 19-317)
binds: all assays above
